Measurements published in ChEMBL document CHEMBL6134832, “Expanding the utilization of binding pockets proves to be effective for noncovalent small molecule inhibitors against SARS-CoV-2 Mpro” (Eur J Med Chem, 2025).

By UniProt entry, the sequences of proteins in these tests, tags left out. Where a name states a change or a piece, a line headed by the entry shows the natural chain unless it says otherwise.
UniProt Q12809: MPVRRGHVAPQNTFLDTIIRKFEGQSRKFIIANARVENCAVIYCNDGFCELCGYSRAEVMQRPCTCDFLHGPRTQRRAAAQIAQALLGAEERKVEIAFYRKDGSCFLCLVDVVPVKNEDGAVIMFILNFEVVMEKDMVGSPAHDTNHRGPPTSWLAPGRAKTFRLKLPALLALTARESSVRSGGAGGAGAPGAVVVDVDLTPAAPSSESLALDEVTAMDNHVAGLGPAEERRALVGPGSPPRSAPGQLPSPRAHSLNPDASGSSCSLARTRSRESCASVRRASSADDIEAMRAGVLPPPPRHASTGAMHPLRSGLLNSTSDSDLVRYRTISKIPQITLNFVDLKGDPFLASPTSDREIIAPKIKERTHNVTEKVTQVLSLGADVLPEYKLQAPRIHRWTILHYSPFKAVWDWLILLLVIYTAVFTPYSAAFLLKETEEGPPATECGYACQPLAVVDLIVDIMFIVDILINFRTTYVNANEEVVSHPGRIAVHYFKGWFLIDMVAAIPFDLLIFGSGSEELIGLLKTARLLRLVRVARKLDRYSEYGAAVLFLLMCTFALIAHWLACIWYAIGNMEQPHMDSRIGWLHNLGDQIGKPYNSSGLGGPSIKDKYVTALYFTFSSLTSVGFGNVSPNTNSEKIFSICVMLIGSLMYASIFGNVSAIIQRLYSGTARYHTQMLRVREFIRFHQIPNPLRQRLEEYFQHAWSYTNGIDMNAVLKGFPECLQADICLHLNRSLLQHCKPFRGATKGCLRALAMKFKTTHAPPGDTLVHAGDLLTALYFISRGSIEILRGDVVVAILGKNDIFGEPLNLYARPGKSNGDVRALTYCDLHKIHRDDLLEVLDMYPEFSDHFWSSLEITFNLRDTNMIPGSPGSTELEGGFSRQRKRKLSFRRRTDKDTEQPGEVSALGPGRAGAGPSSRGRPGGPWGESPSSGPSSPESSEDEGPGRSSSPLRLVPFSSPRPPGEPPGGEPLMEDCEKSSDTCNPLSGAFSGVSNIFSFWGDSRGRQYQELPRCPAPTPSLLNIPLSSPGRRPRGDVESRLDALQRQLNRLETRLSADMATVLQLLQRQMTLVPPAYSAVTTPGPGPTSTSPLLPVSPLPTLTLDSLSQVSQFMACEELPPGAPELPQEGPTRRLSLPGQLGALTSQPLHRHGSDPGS
UniProt P08684: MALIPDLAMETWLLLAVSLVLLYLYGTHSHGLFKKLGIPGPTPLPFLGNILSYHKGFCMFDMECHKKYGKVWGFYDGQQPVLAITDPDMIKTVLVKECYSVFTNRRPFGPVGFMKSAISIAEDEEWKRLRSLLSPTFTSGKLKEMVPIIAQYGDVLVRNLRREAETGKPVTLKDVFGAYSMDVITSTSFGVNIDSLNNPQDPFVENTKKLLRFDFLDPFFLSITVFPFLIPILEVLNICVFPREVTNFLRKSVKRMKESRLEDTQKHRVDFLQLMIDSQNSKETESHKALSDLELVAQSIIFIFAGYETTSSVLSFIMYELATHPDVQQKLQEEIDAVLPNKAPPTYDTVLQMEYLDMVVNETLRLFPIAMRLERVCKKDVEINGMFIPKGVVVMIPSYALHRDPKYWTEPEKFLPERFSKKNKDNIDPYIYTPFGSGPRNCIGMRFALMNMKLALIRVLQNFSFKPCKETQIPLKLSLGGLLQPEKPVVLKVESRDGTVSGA
UniProt P20815: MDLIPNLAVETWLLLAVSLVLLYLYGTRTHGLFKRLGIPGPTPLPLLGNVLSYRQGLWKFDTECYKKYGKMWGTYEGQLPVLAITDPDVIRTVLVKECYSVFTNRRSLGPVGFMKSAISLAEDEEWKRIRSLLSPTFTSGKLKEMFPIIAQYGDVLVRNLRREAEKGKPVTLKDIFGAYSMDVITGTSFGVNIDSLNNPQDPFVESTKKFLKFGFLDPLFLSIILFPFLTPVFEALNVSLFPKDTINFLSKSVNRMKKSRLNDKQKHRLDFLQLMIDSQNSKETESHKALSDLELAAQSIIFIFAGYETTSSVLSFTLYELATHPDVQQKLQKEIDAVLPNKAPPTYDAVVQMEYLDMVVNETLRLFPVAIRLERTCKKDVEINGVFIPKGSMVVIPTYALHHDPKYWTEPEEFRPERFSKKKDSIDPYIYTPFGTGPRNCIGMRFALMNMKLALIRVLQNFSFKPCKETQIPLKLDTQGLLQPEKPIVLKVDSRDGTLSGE

Columns and labels:
[1] = molecular target: Voltage-gated inwardly rectifying potassium channel KCNH2 (Homo sapiens, UniProt Q12809)
CYP3A4/CYP3A5 = CYP3A4/CYP3A5 (Homo sapiens, UniProt P08684+P20815); test: Inhibition of CYP3A4/CYP3A5 (unknown origin)

Structure (SMILES) | IC50 [1] | IC50 (CYP3A4/CYP3A5)
Cn1cc2cc(/N=c3\[nH]c(=O)n(-c4cccnc4)c(=O)n3Cc3cc(F)c(F)cc3F)c(Cl)cc2n1 | > 30 µM | 35.6 µM
Cn1cc2cc(/N=c3\[nH]c(=O)n(-c4cncc(O[C@H]5CCOC5)c4)c(=O)n3Cc3cc(F)c(F)cc3F)c(Cl)cc2n1 | > 30 µM | > 50 µM
